Literature values as cited in patent EP3810127B1, “USE OF MILBEMYCIN OXIME AGAINST SEA LICE ON FISH” (Pharmaq AS, priority 2018, dated 2019).
At least one compound was matched to its structure with a doubt left.

Tested on: sea lice
Conditions: injectable composition, 0.2mg/kg; cited from earlier work

CO/N=C1\C[C@]2(C[C@@H]3C[C@@H](C/C=C(\C)C[C@@H](C)/C=C/C=C4\CO[C@@H]5[C@H](O)C(C)=C[C@@H](C(=O)O3)[C@]45O)O2)O[C@H](/C(C)=C/C(C)C)[C@H]1C [moxidectin]
efficacy against sea lice: provided efficacy
